In one data set the target is PD-1 on T cells / PBMC (UniProt Q15116). The data set is described as follows: activity in cells. The following applies: protein on the cell surface, single-stranded DNA, dose not given here.
Data set [1] addresses T1, PD-1 on mouse spleen T cells (Mus musculus) (UniProt Q02242).
T1 sequence (looked up, limits assumed): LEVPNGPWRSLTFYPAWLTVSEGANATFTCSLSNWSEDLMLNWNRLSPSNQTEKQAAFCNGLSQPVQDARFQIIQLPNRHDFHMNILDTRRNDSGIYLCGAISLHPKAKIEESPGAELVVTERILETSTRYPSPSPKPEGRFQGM
The data set is described as follows: activity in cells. The settings on record: 40 nM; increased CD8+ but not CD4+ T-cell proliferation; protein on the cell surface; single-stranded DNA.

Amino acid sequences for entries named in this document (tags omitted). Residues count along the entry.
UniProt Q15116, 25-288: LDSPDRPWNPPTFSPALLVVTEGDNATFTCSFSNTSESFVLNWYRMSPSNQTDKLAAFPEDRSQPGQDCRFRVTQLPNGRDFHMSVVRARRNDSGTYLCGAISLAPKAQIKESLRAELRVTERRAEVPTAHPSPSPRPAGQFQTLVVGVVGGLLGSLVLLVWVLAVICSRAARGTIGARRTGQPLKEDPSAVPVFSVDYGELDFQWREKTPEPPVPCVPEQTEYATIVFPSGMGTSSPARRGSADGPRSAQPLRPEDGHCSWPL

[2] abbreviates: increased T cell proliferation vs control.

For some of these results: Protein sequences can lack the tags named with them.

With CCATCTCCCA [Core sequence (10 nt)], the “functional effect of the aptamer” value with PD-1 on T cells / PBMC (PBMC proliferation greater than PD-1 antibody) is given as “active”.

As to “CCATCTCCCATTTTTTTTTTT [PEGylated dimer (core + polyT)]”, in the data set with PD-1 on T cells / PBMC (two copies conjugated one at each end of linear 20 kDa PEG, PBMC proliferation greater than PD-1 antibody), the “functional effect of the aptamer” value is “active”.

In the case of “TCCCTACGGCGCTAACCATCATCGATATTGACACAACCATCTCCCTGCCACCGTGCTACAAC [PD13]”, the “functional effect of the aptamer” value in the data set with PD-1 on T cells / PBMC (setting [2]) is reported as “active”.

Regarding “TCCCTACGGCGCTAACCGTCATCGTTAATATATTGTCCTCGCATAAGCCACCGTGCTACAAC [PD24]”, the “functional effect of the aptamer” value with PD-1 on T cells / PBMC (setting [2]) was “active”.

On to “TCCCTACGGCGCTAACCTTCCATCTCCCATGCTTAGTCAAACATACGCCACCGTGCTACAAC [PD7]”, for which the “functional effect of the aptamer” value is listed as “active” in data set [1] and “active” in the data set with PD-1 on T cells / PBMC (strongest T cell proliferation increase, over 30% above PD-1 antibody).

Regarding “TCCCTACGGCGCTAACGTAATTCCATCTCCCTCACAGATTGCTAACGCCACCGTGCTACAAC [PD8]”, the “functional effect of the aptamer” value in the data set with PD-1 on T cells / PBMC (setting [2]) is on record as “active”.

As for “TCCCTACGGCGCTAACTCCATCTCCCTTGTAACGTTGCTTCCTCTTGCCACCGTGCTACAAC [PD9]”, the “functional effect of the aptamer” value with PD-1 on T cells / PBMC (setting [2]) is on record as “active”.

Regarding “TCCCTACGGCGCTAACTCCTGCATCCATCTCCCTCTGTTAGTTTTGGCCACCGTGCTACAAC [PD6]”, the “functional effect of the aptamer” value with PD-1 on T cells / PBMC (setting [2]) was “active”.

With “TCCCTACGGCGCTAACTGATCACAAGAATAACTATCCCATCTCCCTGCCACCGTGCTACAAC [PD16]”, the “functional effect of the aptamer” value in the data set with PD-1 on T cells / PBMC (setting [2]) was “active”.

The record behind these values is patent publication US20170218369.
